Reference: publication PMC11059317
Results are given in words; binding and its absence hold for the method and conditions named. Binding seen in cells or lysates may run through a third protein. Here binding means that the protein was enriched with, or labelled near, the bait; the list need not be complete. Sequences can lack the tags named with a protein.

By UniProt entry, the sequences of proteins in these tests, tags left out. Where a name states a change or a piece, a line headed by the entry shows the natural chain unless it says otherwise. Residues count along the entry.
UniProt P02768, residues 25-609: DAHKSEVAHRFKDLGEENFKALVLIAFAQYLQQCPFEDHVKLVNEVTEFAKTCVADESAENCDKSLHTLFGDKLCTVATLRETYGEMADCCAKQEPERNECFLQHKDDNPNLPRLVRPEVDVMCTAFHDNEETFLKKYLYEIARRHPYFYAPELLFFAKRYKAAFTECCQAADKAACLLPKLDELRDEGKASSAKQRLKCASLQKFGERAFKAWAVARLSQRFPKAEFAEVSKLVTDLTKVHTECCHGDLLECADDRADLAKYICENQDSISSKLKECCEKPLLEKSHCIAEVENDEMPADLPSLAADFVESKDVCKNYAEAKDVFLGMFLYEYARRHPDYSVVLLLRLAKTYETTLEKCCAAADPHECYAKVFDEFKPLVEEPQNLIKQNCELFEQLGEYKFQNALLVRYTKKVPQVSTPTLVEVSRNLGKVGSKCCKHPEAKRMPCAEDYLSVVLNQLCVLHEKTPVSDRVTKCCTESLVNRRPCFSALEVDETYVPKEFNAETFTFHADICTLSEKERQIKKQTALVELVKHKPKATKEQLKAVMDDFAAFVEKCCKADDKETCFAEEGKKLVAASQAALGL
UniProt P07724, residues 25-608: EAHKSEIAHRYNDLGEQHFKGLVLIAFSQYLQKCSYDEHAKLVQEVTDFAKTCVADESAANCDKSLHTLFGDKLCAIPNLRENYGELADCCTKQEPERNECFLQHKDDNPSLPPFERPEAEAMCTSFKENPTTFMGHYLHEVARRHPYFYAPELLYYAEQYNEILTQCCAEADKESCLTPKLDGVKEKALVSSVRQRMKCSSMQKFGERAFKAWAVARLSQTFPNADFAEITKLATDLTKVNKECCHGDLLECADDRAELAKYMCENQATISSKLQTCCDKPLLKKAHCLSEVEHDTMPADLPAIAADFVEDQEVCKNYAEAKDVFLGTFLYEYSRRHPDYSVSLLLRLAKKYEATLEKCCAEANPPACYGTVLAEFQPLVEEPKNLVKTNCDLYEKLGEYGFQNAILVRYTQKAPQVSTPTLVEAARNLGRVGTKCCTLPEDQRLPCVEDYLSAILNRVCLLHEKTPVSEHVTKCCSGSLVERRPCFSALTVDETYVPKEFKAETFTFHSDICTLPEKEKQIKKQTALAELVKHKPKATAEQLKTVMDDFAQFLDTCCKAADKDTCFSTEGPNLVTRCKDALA
UniProt B5THE2: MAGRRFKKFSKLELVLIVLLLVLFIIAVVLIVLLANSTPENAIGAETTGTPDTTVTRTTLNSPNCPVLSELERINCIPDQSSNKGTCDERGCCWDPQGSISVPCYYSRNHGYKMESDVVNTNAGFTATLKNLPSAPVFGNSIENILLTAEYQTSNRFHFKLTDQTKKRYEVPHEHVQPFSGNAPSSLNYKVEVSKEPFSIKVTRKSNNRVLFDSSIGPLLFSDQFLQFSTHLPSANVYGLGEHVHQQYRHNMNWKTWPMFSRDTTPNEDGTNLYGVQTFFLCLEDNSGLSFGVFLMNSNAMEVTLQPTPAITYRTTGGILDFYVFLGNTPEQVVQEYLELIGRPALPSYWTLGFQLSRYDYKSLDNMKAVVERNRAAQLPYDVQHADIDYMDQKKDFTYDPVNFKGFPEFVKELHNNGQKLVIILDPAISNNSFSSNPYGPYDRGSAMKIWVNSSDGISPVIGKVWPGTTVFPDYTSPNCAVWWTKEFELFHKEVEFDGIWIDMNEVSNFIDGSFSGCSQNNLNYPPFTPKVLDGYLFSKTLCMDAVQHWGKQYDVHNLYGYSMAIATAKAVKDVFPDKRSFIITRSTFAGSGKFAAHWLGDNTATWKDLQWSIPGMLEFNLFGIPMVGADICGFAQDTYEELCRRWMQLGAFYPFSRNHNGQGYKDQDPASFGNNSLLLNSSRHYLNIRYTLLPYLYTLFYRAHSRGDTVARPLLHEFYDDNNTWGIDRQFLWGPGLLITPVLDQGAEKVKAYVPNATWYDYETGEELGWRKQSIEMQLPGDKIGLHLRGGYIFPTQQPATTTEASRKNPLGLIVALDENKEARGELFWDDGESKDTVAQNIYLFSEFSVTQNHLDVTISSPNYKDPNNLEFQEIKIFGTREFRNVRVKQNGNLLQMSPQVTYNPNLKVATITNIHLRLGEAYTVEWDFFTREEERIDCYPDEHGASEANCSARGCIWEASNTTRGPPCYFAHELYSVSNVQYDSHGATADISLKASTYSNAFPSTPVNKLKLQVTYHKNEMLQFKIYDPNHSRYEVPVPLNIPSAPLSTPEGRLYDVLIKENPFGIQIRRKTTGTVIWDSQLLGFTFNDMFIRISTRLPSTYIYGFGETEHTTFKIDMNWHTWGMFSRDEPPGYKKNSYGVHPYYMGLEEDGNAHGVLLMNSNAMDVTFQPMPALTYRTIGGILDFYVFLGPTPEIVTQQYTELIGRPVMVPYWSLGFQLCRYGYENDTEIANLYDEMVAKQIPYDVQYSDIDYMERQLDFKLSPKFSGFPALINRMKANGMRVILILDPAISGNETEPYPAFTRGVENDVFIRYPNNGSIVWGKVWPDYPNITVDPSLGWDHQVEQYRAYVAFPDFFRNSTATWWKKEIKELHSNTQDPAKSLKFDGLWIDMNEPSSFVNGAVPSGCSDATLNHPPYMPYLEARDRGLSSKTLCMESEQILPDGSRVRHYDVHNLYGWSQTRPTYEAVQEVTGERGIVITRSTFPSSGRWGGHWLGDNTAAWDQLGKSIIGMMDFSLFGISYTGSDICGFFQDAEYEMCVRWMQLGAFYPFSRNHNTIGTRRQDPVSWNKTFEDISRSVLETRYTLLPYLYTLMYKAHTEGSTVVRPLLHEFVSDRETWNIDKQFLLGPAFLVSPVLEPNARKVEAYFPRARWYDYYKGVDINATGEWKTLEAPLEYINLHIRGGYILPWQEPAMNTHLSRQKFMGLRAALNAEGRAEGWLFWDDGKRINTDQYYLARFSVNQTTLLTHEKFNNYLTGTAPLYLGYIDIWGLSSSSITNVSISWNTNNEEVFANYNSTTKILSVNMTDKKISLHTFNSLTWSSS

T1: Streptococcus pyogenes M1 protein (amino acids 42-484), TAP-tagged (Streptococcus pyogenes) (UniProt Q99XV0)
T1 sequence: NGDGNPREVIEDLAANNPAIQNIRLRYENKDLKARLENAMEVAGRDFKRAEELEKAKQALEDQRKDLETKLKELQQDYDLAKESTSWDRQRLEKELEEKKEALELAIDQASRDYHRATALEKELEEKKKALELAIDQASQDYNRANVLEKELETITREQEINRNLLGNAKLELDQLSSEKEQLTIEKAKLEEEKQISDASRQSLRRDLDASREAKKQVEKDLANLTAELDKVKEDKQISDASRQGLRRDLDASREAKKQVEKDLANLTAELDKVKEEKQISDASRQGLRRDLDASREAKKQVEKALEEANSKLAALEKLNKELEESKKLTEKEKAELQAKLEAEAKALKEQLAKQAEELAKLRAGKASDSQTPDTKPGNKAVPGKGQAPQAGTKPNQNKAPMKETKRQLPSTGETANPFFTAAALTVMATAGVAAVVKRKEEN

B1: human alpha-2-macroglobulin (protein, UniProt P01023 24-1474)
chain: SVSGKPQYMVLVPSLLHTETTEKGCVLLSYLNETVTVSASLESVRGNRSLFTDLEAENDVLHCVAFAVPKSSSNEEVMFLTVQVKGPTQEFKKRTTVMVKNEDSLVFVQTDKSIYKPGQTVKFRVVSMDENFHPLNELIPLVYIQDPKGNRIAQWQSFQLEGGLKQFSFPLSSEPFQGSYKVVVQKKSGGRTEHPFTVEEFVLPKFEVQVTVPKIITILEEEMNVSVCGLYTYGKPVPGHVTVSICRKYSDASDCHGEDSQAFCEKFSGQLNSHGCFYQQVKTKVFQLKRKEYEMKLHTEAQIQEEGTVVELTGRQSSEITRTITKLSFVKVDSHFRQGIPFFGQVRLVDGKGVPIPNKVIFIRGNEANYYSNATTDEHGLVQFSINTTNVMGTSLTVRVNYKDRSPCYGYQWVSEEHEEAHHTAYLVFSPSKSFVHLEPMSHELPCGHTQTVQAHYILNGGTLLGLKKLSFYYLIMAKGGIVRTGTHGLLVKQEDMKGHFSISIPVKSDIAPVARLLIYAVLPTGDVIGDSAKYDVENCLANKVDLSFSPSQSLPASHAHLRVTAAPQSVCALRAVDQSVLLMKPDAELSASSVYNLLPEKDLTGFPGPLNDQDNEDCINRHNVYINGITYTPVSSTNEKDMYSFLEDMGLKAFTNSKIRKPKMCPQLQQYEMHGPEGLRVGFYESDVMGRGHARLVHVEEPHTETVRKYFPETWIWDLVVVNSAGVAEVGVTVPDTITEWKAGAFCLSEDAGLGISSTASLRAFQPFFVELTMPYSVIRGEAFTLKATVLNYLPKCIRVSVQLEASPAFLAVPVEKEQAPHCICANGRQTVSWAVTPKSLGNVNFTVSAEALESQELCGTEVPSVPEHGRKDTVIKPLLVEPEGLEKETTFNSLLCPSGGEVSEELSLKLPPNVVEESARASVSVLGDILGSAMQNTQNLLQMPYGCGEQNMVLFAPNIYVLDYLNETQQLTPEIKSKAIGYLNTGYQRQLNYKHYDGSYSTFGERYGRNQGNTWLTAFVLKTFAQARAYIFIDEAHITQALIWLSQRQKDNGCFRSSGSLLNNAIKGGVEDEVTLSAYITIALLEIPLTVTHPVVRNALFCLESAWKTAQEGDHGSHVYTKALLAYAFALAGNQDKRKEVLKSLNEEAVKKDNSVHWERPQKPKAPVGHFYEPQAPSAEVEMTSYVLLAYLTAQPAPTSEDLTSATNIVKWITKQQNAQGGFSSTQDTVVALHALSKYGAATFTRTGKAAQVTIQSSGTFSSKFQVDNNNRLLLQQVSLPELPGEYSMKVTGEGCVYLQTSLKYNILPEKEEFPFALGVQTLPQTCDEPKAHTSFQISLSVSYTGSRSASNMAIVDVKMVSGFIPLKPTVKMLERSNHVSRTEVSSNHVLIYLDKVSNQTLSLFFTVLQDVPVRDLKPAIVKVYDYYETDEFAIAEYNAPCSKDLGNA
B2: mouse C4b-binding protein (protein, UniProt P08607 57-469)
chain: KCGPPPAIPNALPASDVNRTDFESHTTLKYECLPGYGRGISRMMVYCKPSGEWEISVSCAKKHCRNPGYLDNGYVNGETITFGSQIEFSCQEGFILVGSSTSSCEVRGKGVAWSNPFPECVIVKCGPPPDISNGKHSGTEDFYPYNHGISYTCDPGFRLVGSPFIGCTVVNKTVPVWSSSPPTCEKIICSQPNILHGVIVSGYKATYTHRDSVRLACLNGTVLRGRHVIECQGNGNWSSLPTCEFDCDLPPAIVNGYYTSMVYSKITLVTYECDKGYRLVGKAIISCSFSKWKGTAPQCKALCQKPEVGNGTLSDEKDQYVESENVTIQCDSGFAMLGSQSISCSESGTWYPEVPRCEQEASEDLKPALTGNKTMQYVPNSHDVKMALEIYKLTLEVELLQLQIQKEKHTEAH
B3: mouse alpha-2-macroglobulin (protein, UniProt Q6GQT1 33-1474)
chain: PQKPIYMVMVPSLLHAGTPEKGCLLFNHLNETVTVKVSMESVRGNQSLFTDLVVDKDLFHCASFIVPQSSSNEVMFLTVQVKGPTHEFRRRSTVLIKTKESLVFAQTDKPIYKPGQMVRFRVVSLDENFHPLNELIPLLYIQDSKKNRIAQWQNFRLEGGLKQLSFPLSSEPTQGSYKVVIRTESGRTVEHPFSVKEFVLPKFEVKVAVPETITILEEEMNVSVCGIYTYGKPVPGHVTVNICRKYSNPSSCFGEESLAFCEKFSQQLDGRGCFSQLVKTKSFQLKRQEYEMQLDVNAKIQEEGTGVEETGKGLTKITRTITKLSFVNVDTHFRQGIPFVGQVLLVDGRGTPIPYEMIFIGADEANQNINTTTDKNGLARFSINTDDIMGTSLTVRAKYKDSNVCYGFRWLTEENVEAWHTANAVFSPSRSFVHLESLPYKLRCEQTLAVQAHYILNDEAVLERKELVFYYLMMAKGGIVRAGTHVLPVTQGHKKGHFSILISMETDLAPVARLVLYTILPNGEVVGDTVKYEIEKCLANKVDLVFHPNIGLPATRAFLSVMASPQSLCGLRAVDQSVLLTKPEAELSASLVYDLLPVKDLTGFPKGVNQQEEDTNGCLKQNDTYINGILYSPVQNTNEEDMYGFLKDMGLKVFTNLNIRKPKVCERLGVNKIPAAYHLVSQGHMDAFLESSESPTETTRSYFPETWIWDLVIVDSTGVAEMEVTVPDTITEWKAGAFCLSNDTGLGLSPVIDFQAFQPFFVDLTMPYSVIRGEAFTLKATVLNYLQTCIRVGVQLEASPDFLATPEEKEQKSHCICMNERHTMSWAVIPKSLGNVNFTVSAEALDSKELCRNEVPVVPERGKKDTIIKSLLVEPEGLENEVTFNSLLCPTGAEVSEQISLKLPSDVVEESARASVTVLGDILGSAMQNTQDLLKMPYGCGEQNMVLFAPNIYVLDYLNETEQLTQEIKTKAITYLNTGYQRQLNYKHRDGSYSTFGDKPGRSHANTWLTAFVLKSFAQARRYIFIDESHITQALTWLSQQQKDNGCFRSSGSLLNNAMKGGVEDEVTLSAYITIALLEMSLPVTHPVVRNALFCLDTAWKSARRGASGNHVYTKALLAYAFALAGNQDTKKEILKSLDEEAVKEDNSVHWTRAQKPRVPADLWYQPQAPSAEVEMTAYVLLAYLTTELVPTREDLTAAMLIVKWLTKQQNSHGGFSSTQDTVVALHALSKYGAATFTRAKKAAHVTIQSSGAFYTKFQVNNDNQLLLQRVTLPTVPGDYTAKVAGEGCVYLQTSLKYSVLPREKEFPFALVVQTLPGTCEDLKAHTTFQISLNISYIGSRSDSNMAIADVKMVSGFIPLKPTVKMLERSVHVSRTEVSNNHVLIYLDKVSNQMLTLFFMVQQDIPVRDLKPAIVKVYDYYEKDEFAVAKYSAPCSAGYGNA
B4: mouse coagulation factor 13B (protein, UniProt Q07968 22-669)
chain: EEKQCDFPTVENGRIAQYYYTFKSFYFPMSVDKKLSFFCLAGYATESGKQEEQIRCTAEGWSPNPRCYKKCLKPDLRNGYVSNDKVLYKLQERMSYGCSSGYKTTGGKDEEVVHCLSAGWSSQPSCRKEQETCLAPELEHGNYSTTQRTFKVKDIVAYTCTAGYYTTTGKQTGEAECQANGWSLTPQCNKLMCSSLRLIENGYFHPVKQTYEEGDVVQFFCHENYYLSGSDLIQCYNFGWYPESPICEGRRNRCPPPPVPLNSKIQPHSTTYRHGERVHIECELNFVIQGSEELLCENGKWTEPPKCIEEKEKVACEQPPSVENGVAHPHSEIYYSGDKVTYRCGGGYSLRGSSTITCNRGRWTLPPECVENIENCKPPPDIANGVVVDGLLASYTTGSSVEYRCNEYYLLKGSETSRCEQGAWSSPPVCLEPCTIDVDHMNRNNIQLKWKYEGKILHGDLIDFVCKQGYNLSPSIPLSEISAQCNRGDVRYPMCIRKESKGMCASPPVIRNGDIVSSAARTYENGSSVEYRCFDNHFLQGSQNVYCVDGVWTTPPSCLEPCTLSFVEMDKNYLQLKWNFDNRPLILHGEYIEFMCKRDAYISETSIAGSVLRVQCDRGRLKYPKCTPRDRRLSFQEALRTRRQMEKR

These molecules were tested against T1, Streptococcus pyogenes M1 protein (amino acids 42-484), TAP-tagged (Streptococcus pyogenes) (assay: affinity purification with mass spectrometry; 10 ug TAP-tagged M1 on Strep-Tactin Sepharose beads; pooled human plasma, 37 C, 800 rpm, 1 h; washed with ice-cold PBS pH 7.4; eluted with 5 mM biotin; DDA- and DIA-MS; hits filtered against sfGFP bait; only the target purified).

Molecule	binding
human albumin (from UniProt P02768 25-609)	binds
human complement system C4b-binding protein	binds
human ficolin	binds
human haptoglobin	binds
B1	binds

These molecules were tested against T1, Streptococcus pyogenes M1 protein (amino acids 42-484), TAP-tagged (Streptococcus pyogenes) (assay: affinity purification with mass spectrometry; 10 ug TAP-tagged M1 on Strep-Tactin Sepharose beads; pooled BALB/c mouse plasma, 37 C, 800 rpm, 1 h; washed with ice-cold PBS pH 7.4; eluted with 5 mM biotin; DDA- and DIA-MS; hits filtered against sfGFP bait; only the target purified).

Molecule	binding
mouse albumin (from UniProt P07724 25-608)	binds
mouse alpha-1 antitrypsin (A1AT1-6)	binds
mouse fibulin	binds
mouse maltase-glucoamylase (from UniProt B5THE2)	binds
B2	binds
B3	binds
B4	binds
